This assay has as its target T1, Mitogen-activated protein kinase kinase 5 (MKK5) (Arabidopsis) (UniProt Q8RXG3).
T1 sequence: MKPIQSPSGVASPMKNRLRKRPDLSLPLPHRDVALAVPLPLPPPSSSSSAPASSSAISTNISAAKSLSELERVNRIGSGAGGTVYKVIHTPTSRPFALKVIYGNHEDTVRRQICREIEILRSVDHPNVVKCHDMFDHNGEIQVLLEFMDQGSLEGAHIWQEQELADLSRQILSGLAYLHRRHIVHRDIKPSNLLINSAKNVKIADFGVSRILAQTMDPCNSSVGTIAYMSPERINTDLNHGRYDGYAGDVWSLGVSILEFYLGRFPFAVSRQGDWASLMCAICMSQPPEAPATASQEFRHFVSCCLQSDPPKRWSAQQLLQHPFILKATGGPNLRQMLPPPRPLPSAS
The assay can be described thus: two-hybrid; ProQuest Two-Hybrid System (Invitrogen) in yeast; pEXP32-MKK5 as bait, pEXP22-MEKK1 as prey; growth on SC -Leu -Trp -Ura, on 0.2% 5-FOA, on -His with 100 mM 3AT, X-Gal assay on membrane, quantitative beta-galactosidase assay in liquid culture.

No constants are given. Whether binding was seen depends on the method and setting. Some entries that bind do so weakly or less than the wild type.

B1: ANP2 (protein, UniProt Q9FZ36 1-651)
chain: MQDLFGSVRRSLVFRSTTDDENQENHPPPFPSLLADKITSCIRKSMVFAKSQSPPNNSTVQIKPPIRWRKGQLIGRGAFGTVYMGMNLDSGELLAVKQVLITSNCASKEKTQAHIQELEEEVKLLKNLSHPNIVRYLGTVREDETLNILLEFVPGGSISSLLEKFGAFPESVVRTYTNQLLLGLEYLHNHAIMHRDIKGANILVDNQGCIKLADFGASKQVAELATISGAKSMKGTPYWMAPEVILQTGHSFSADIWSVGCTVIEMVTGKAPWSQQYKEIAAIFHIGTTKSHPPIPDNISSDANDFLLKCLQQEPNLRPTASELLKHPFVTGKQKESASKDLTSFMDNSCSPLPSELTNITSYQTSTSDDVGDICNLGSLTCTLAFPEKSIQNNSLCLKSNNGYDDDDDNDMCLIDDENFLTYNGETGPSLDNNTDAKKSCDTMSEISDILKCKFDENSGNGETETKVSMEVDHPSYSEDENELTESKIKAFLDDKAAELKKLQTPLYEEFYNGMITCSPICMESNINNNKREEAPRGFLKLPPKSRSPSQGHIGRSPSRATDAACCSKSPESGNSSGAPKNSNASAGAEQESNSQSVALSEIERKWKEELDQELERKRREITRQAGMGSSPRDRSLSRHREKSRFASPGK
Take B1: the binding result was “no binding”.

B2: ANP1 (protein, UniProt O22040 1-666)
chain: MQDFFGSVRRSLVFRPSSDDDNQENQPPFPGVLADKITSCIRKSKIFIKPSFSPPPPANTVDMAPPISWRKGQLIGRGAFGTVYMGMNLDSGELLAVKQVLIAANFASKEKTQAHIQELEEEVKLLKNLSHPNIVRYLGTVREDDTLNILLEFVPGGSISSLLEKFGPFPESVVRTYTRQLLLGLEYLHNHAIMHRDIKGANILVDNKGCIKLADFGASKQVAELATMTGAKSMKGTPYWMAPEVILQTGHSFSADIWSVGCTVIEMVTGKAPWSQQYKEVAAIFFIGTTKSHPPIPDTLSSDAKDFLLKCLQEVPNLRPTASELLKHPFVMGKHKESASTDLGSVLNNLSTPLPLQINNTKSTPDSTCDDVGDMCNFGSLNYSLVDPVKSIQNKNLWQQNDNGGDEDDMCLIDDENFLTFDGEMSSTLEKDCHLKKSCDDISDMSIALKSKFDESPGNGEKESTMSMECDQPSYSEDDDELTESKIKAFLDEKAADLKKLQTPLYEEFYNSLITFSPSCMESNLSNSKREDTARGFLKLPPKSRSPSRGPLGGSPSRATDATSCSKSPGSGGSRELNINNGGDEASQDGVSARVTDWRGLVVDTKQELSQCVALSEIEKKWKEELDQELERKRQEIMRQAGLGSSPRDRGMSRQREKSRFASPGK
Regarding B2, the binding entry was “no binding”.

B3: MEKK1 (protein, UniProt Q39008 1-608)
chain: MDRILARMKKSTGRRGGDKNITPVRRLERRDAARNINYDAASCSSSSAEDLSVSTSSLMTRSLEFPEPTSFRIGGGVGEMDRIYRSLGVSGPDDLAISFDAWEACKKRSSSDVVNRFKSFDLDKVRDQDLSEEGPSGVVVGSDSMNHKVQGQDLSEAGPSGGIVTELSEIGNLITPVDRLVADGVVENRRVMERTPTIVKSKGYLVPNNVVAVGVGVGGGIKGLRPPVLKPPPAMKRPPIDHRGSSWDFLTHFAPSETVKRPSSSSSSSEDGCDEEEGKEEEAEAEEMGARFIQLGDTADETCSFTTNEGDSSSTVSNTSPIYPDGGAIITSWQKGQLLGRGSFGSVYEGISGDGDFFAVKEVSLLDQGSQAQECIQQLEGEIKLLSQLQHQNIVRYRGTAKDGSNLYIFLELVTQGSLLKLYQRYQLRDSVVSLYTRQILDGLKYLHDKGFIHRDIKCANILVDANGAVKLADFGLAKVSKFNDIKSCKGTPFWMAPEVINRKDSDGYGSPADIWSLGCTVLEMCTGQIPYSDLEPVQALFRIGRGTLPEVPDTLSLDARLFILKCLKVNPEERPTAAELLNHPFVRRPLPSVGSGGSGSASPLLRR
On to B3, for which the binding entry is “binds”.

(Values after publication PMC4566985.)
